Consider one compound from patent US10220026B2, “Micelle containing epirubicin-complexed block copolymer and anti-cancer agent, and pharmaceutical composition containing said micelle applicable to treatment of cancer, resistant cancer or metastatic cancer” (priority 2014, dated 2019).

In test [1] the test system is Epirubicin-resistant breast cancer cells (MCF-7). Briefly: Elimination of epirubicin and eFluxx-ID-GFP by resistant strain (confocal microscopy), breast cancer. The test is classed as cell-based, human. The following applies: epirubicin-resistant strain. On the procedure: (§1) Epirubicin-resistant breast cancer cells (MCF-7) and cisplatin-resistant lung cancer cells (H460) were respectively disseminated in each of the wells of an 8-well Tek chambered cover glass (Thermo Fisher Scientific K.K.) at 1×10^4 cells/well followed by culturing overnight. The medium was then replaced with 200 μl of RPMI1640 (phenol red-free) containing 0.1 μg/ml of Hoechst 33342 and 10% FBS.
(§2) 200 μl of eFluxx-ID-GFP solution were added 1 hour after addition of drug. The medium was replaced with RPMI1640 medium containing 10% FBS 30 minutes after addition followed by observation with an LSM780 confocal microscope and taking photographs thereof (FIGS. 12B and 13B). Cells subjected to the procedure prior to acquiring resistance were used as a control and epirubicin was added for the drug. In this experiment, fluorescence-labeled epirubicin (manufacturer) was used for the epirubicin.

Test [2] relates to cisplatin-resistant lung cancer cells (H460). Briefly: Elimination of epirubicin and eFluxx-ID-GFP by resistant strain (confocal microscopy), lung cancer. The test is classed as cell-based, human. The procedure:
as §1, §2

Each structure is given as a SMILES string.

On to `CN[C@@H]1C[C@H]2O[C@@](C)([C@@H]1OC)n1c3ccccc3c3c4c(c5c6ccccc6n2c5c31)C(=O)NC4` [staurosporine], for which the “inhibition of ABC transporter” value in test [1] and in test [2] was “inhibited” in each case.
